The record followed here is paper PMC4756317.

The test system of the data set is GAME9 (aa 40-219). In words: EMSA. Particulars: 200 ng protein, EMSA with unlabeled annealed oligonucleotides, equimolar probes, 1% agarose gel, pH and temperature not given (cites ref. 59), recombinant protein, protein details: His. A general note: Mobility shift assays separate free from complexed probe on a gel.

The exact form of at least one protein or probe is not confirmed.

“AATCAATTTTCATTAAATACAGCCTGCCACACATGCATATATTGTGTTA (double strand) [C5-SD GCC-box probe]”: the binding result was “binds”.
